From patent US20160053025A1
No constants are given. Whether binding was seen depends on the method and setting. Some results given as binding are weak or reduced against the parent protein; the word gives no strength.

Chains of the proteins cited; added tags and fusions are not shown. Lines headed by an entry give the natural chain unless they say otherwise; changes in a name come on top.
UniProt O15123: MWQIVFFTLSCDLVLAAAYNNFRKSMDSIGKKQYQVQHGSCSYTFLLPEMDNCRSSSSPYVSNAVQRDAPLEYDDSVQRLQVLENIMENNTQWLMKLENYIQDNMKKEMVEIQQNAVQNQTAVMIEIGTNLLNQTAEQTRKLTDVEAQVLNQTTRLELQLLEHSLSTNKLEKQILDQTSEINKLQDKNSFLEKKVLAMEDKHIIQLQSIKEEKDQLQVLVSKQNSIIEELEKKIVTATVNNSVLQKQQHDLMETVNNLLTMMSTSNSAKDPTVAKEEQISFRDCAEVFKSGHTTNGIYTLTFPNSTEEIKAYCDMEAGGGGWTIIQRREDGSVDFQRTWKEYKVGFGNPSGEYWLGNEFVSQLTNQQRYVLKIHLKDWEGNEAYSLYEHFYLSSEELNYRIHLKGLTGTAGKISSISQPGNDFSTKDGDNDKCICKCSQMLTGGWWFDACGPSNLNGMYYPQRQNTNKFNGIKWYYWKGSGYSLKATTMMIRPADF

Molecular target: FLAG-tagged hAng-2 (human) (UniProt O15123)
Assay: Complex ELISA: plate coated with Tie2-Fc (4 ug/ml), FLAG-Ang2 0.25 ug/ml and 10D6 2 ug/ml added together, bound 10D6 detected with anti-mouse IgG-HRP, OD450

B1: SAIT-ANG2-AB-m10D6 (antibody, V domains shown)
VH: DVQLQESGPDLVKPSQSLSLTCTVTGYSITSDYAWNWIRQFPGNKLEWMGYINYSGNTDYNPSLKSRSSITRDTSKNQFFLQLNSVTTGDTATYYCARGNFEGAMDYWGQGTSVTVSS
VL: SIVMTQTPKFLLVSAGDRVTITCKASQSVSNDVAWYQQKPGQSPKLLIYYASNRYPGVPDRFTGSGYGTDFTFTISTVQAEDLAVYFCQQDYSSPWTFGGGTKLEIK
  binding: binds
